Experimental findings from patent EP0989136A1 (KYOWA HAKKO KOGYO CO., LTD., priority 1997, dated 1998) are described below.

Data set [1] is described as follows: general procedure: Fmoc solid-phase peptide synthesis; Rink Amide MBHA resin; PyBOP/HOBt/NMM; HBTU/HOBt/DIEA. Conditions: whole synthesis.
The nature of data set [2]: general procedure: Fmoc solid-phase peptide synthesis; Wang resin; Rink Amide MBHA resin; 2-chlorotritylchloride resin; Rink Amide TGR resin; PyBOP/HOBt/NMM; HBTU/HOBt/DIEA. Conditions: whole synthesis.
Data set [3] is described as follows: general procedure: Fmoc solid-phase peptide synthesis; Rink Amide TGR resin; PyBOP/HOBt/NMM; HBTU/HOBt/DIEA. Conditions: whole synthesis, scale 20 umol.
The nature of data set [4]: general procedure: Fmoc solid-phase peptide synthesis; Wang resin; PyBOP/HOBt/NMM; HBTU/HOBt/DIEA. Conditions: whole synthesis, scale 18 umol.

HELM strings list residues between dots; [ac] is acetyl, [am] amide, other brackets name non-standard units.

In data set [1] (scale 22 umol), “PEPTIDE1{C.L.K.S.K.K.G.Q.S.T.C.R.H.K.K.L.[am]}$PEPTIDE1,PEPTIDE1,1:R3-11:R3$$$V2.0” registered a crude mass of 57.8 mg and an isolated mass of 2.3 mg.
In the case of “PEPTIDE1{C.L.K.S.K.K.G.Q.S.T.S.R.H.K.K.L.C.[Add].[am]}$PEPTIDE1,PEPTIDE1,1:R3-17:R3$$$V2.0”, in data set [1] (scale 16.5 umol), the crude mass turned out to be 44.6 mg and the isolated mass is 11.2 mg.
The matching figures for “PEPTIDE1{C.L.K.S.K.K.G.Q.S.T.S.R.H.K.K.L.C.[am]}$PEPTIDE1,PEPTIDE1,1:R3-17:R3$$$V2.0”: 35.8 mg and 3.5 mg.
Regarding “PEPTIDE1{C.L.K.S.K.K.G.Q.S.T.S.R.H.K.K.L.C}$PEPTIDE1,PEPTIDE1,1:R3-17:R3$$$V2.0”, in data set [2] (scale 25 umol), the crude mass was 68.5 mg and the isolated mass stood at 12.7 mg.
The corresponding values for “PEPTIDE1{C.L.K.S.K.K.Q.S.T.S.R.H.K.K.L.C}$PEPTIDE1,PEPTIDE1,1:R3-16:R3$$$V2.0” are 64.5 mg and 14.1 mg.
In data set [2] (scale 30.5 umol), PEPTIDE1{K.K.G.Q.S.T.S.R.H.K.K}$$$$V2.0 registered a crude mass of 54.4 mg and an isolated mass of 41.4 mg.
In data set [2] (scale 18.3 umol), “PEPTIDE1{K.S.K.K.G.Q.S.T.S.R.H.K.K}$$$$V2.0” had a crude mass of 42.7 mg and an isolated mass of 14.1 mg.
In data set [1] (scale 22 umol), “PEPTIDE1{L.K.C.K.K.G.Q.S.T.C.R.H.K.K.L.[am]}$PEPTIDE1,PEPTIDE1,3:R3-10:R3$$$V2.0” had a crude mass of 54.6 mg and an isolated mass of 7.0 mg.
“PEPTIDE1{L.K.C.K.K.G.Q.S.T.S.R.H.K.K.L.C.[am]}$PEPTIDE1,PEPTIDE1,3:R3-16:R3$$$V2.0”: in data set [1] (scale 22 umol), the crude mass was 55.7 mg and the isolated mass amounted to 10.1 mg.
In data set [3], “PEPTIDE1{L.K.D.K.K.G.Q.S.T.S.R.H.K.K.L.[am]}$PEPTIDE1,PEPTIDE1,3:R3-13:R3$$$V2.0” had a crude mass of 60.4 mg and an isolated mass of 1.8 mg.
For “PEPTIDE1{L.K.S.K.K.G.Q.S.T.S.R.H.K.K.L}$$$$V2.0”, in data set [4], the crude mass is given as 51.8 mg and the isolated mass is reported as 21.9 mg.
Take “PEPTIDE1{[CH2CO].L.K.S.K.K.G.Q.S.T.S.R.H.K.K.L.C.[am]}$PEPTIDE1,PEPTIDE1,1:R3-17:R3$$$V2.0”: in data set [1] (scale 27.5 umol), the crude mass is on record as 50.7 mg and the isolated mass is 4.2 mg.
In data set [1] (scale 16.5 umol), “PEPTIDE1{[ac].C.L.K.S.K.K.G.Q.S.T.S.R.H.K.K.L.C.[am]}$PEPTIDE1,PEPTIDE1,2:R3-18:R3$$$V2.0” registered a crude mass of 37.1 mg and an isolated mass of 4.5 mg.
